Results as given in PMC5805371.
These are yes or no findings as the source states them, for the method shown. Binding seen in cells or lysates may run through a third protein. Here binding means that the protein was enriched with, or labelled near, the bait; the list need not be complete.

By UniProt entry, the sequences of proteins in these tests, tags left out.
UniProt O15534: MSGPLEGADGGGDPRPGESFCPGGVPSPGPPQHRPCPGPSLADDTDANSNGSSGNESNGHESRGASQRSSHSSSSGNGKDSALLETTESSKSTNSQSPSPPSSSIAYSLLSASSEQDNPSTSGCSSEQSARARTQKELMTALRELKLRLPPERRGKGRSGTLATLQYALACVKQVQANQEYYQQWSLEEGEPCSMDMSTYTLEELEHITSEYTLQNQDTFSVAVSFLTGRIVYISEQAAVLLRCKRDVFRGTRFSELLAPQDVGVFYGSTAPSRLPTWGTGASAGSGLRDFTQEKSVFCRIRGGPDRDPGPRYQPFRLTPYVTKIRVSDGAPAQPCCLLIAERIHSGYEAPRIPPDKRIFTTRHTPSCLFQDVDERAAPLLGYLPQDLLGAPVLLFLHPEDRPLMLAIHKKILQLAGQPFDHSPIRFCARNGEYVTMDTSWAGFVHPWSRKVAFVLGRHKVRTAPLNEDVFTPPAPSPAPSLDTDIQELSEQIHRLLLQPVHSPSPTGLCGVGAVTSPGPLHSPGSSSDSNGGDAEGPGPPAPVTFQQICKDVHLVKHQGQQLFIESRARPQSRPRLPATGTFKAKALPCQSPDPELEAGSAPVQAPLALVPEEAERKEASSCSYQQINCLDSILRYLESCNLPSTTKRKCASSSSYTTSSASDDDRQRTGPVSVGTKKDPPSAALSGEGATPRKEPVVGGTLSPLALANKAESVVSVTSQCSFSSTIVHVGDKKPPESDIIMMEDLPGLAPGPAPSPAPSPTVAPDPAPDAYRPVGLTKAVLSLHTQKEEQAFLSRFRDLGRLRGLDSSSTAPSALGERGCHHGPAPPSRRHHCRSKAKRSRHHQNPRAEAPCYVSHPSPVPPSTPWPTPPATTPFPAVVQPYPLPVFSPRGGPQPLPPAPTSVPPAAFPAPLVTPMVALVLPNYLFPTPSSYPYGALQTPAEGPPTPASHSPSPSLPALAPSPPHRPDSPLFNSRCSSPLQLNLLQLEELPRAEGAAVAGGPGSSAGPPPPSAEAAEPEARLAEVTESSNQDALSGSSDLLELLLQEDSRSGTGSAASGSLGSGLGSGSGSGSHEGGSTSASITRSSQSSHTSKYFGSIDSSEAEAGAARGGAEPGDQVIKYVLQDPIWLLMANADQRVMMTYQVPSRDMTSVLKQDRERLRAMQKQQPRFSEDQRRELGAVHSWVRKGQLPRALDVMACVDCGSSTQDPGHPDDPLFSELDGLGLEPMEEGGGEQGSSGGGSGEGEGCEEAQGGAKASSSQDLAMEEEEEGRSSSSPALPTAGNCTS
UniProt Q92973: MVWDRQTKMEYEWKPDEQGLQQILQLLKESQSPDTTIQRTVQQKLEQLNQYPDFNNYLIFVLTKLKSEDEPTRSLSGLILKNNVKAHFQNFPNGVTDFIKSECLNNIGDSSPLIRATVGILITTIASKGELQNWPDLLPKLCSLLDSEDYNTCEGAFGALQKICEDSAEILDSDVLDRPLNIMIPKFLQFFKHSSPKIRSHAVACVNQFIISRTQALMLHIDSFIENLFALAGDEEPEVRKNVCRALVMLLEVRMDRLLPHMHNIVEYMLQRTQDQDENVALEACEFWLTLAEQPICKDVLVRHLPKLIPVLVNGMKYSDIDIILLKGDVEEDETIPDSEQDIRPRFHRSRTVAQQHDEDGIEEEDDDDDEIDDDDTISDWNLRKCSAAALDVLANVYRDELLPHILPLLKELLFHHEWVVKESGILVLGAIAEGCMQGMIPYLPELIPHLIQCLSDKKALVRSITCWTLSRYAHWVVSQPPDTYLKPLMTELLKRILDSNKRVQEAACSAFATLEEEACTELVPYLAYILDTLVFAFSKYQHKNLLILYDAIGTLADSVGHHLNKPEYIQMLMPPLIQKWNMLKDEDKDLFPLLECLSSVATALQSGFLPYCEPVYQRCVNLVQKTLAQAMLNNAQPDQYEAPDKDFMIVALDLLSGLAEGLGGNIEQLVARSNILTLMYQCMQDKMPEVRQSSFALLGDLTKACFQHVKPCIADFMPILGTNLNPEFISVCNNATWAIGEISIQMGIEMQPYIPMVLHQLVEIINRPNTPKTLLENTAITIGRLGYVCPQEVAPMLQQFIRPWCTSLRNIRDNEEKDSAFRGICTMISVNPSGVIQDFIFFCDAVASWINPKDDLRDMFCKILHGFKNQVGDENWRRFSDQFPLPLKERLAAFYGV
UniProt O00327: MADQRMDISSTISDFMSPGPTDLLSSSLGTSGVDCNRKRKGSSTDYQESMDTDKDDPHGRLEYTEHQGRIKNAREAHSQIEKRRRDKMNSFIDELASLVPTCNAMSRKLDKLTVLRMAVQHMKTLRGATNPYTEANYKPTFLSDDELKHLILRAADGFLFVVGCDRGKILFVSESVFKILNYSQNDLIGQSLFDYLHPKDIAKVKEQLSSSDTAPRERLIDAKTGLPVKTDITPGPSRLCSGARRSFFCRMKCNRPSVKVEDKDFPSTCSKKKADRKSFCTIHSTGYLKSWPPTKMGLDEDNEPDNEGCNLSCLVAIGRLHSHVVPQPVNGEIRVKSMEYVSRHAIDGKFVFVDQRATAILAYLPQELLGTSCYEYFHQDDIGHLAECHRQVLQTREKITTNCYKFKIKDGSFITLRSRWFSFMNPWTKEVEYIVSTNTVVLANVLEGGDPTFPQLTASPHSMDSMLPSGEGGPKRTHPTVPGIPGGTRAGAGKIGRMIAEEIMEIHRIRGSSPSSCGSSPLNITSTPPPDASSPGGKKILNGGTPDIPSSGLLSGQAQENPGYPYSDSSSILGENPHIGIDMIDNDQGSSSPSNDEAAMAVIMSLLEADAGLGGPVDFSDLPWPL

Target: T1, CLOCK (human (endogenous in U-2 OS)) (UniProt O15516)
T1 sequence: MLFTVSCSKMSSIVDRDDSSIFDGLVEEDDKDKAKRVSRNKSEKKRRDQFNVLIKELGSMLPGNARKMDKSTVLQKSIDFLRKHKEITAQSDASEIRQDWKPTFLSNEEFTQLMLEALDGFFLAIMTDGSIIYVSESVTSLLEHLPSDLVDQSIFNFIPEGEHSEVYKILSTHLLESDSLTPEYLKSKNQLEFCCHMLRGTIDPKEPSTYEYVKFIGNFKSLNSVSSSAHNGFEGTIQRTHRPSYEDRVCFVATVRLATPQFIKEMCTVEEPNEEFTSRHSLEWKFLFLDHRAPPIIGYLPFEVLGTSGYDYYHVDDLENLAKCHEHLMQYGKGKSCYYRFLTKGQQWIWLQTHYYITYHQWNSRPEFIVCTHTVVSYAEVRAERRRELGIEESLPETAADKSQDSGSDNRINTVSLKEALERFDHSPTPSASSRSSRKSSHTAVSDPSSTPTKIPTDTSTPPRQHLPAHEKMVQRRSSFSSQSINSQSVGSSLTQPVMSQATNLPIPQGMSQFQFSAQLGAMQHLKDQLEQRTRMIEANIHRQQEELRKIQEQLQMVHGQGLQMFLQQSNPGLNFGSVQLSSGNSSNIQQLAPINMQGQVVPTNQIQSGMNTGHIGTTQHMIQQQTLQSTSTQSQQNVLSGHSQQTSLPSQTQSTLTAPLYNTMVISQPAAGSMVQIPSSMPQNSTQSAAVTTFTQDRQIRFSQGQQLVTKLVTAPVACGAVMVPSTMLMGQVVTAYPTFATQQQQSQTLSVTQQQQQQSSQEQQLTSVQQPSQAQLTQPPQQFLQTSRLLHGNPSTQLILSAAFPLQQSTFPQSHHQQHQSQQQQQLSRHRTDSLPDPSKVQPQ
Experiment: affinity purification with mass spectrometry; modified ChIP protocol: 1 mg formaldehyde cross-linked protein extracts from unsynchronized U-2 OS cell nuclei, two different rabbit anti-CLOCK antibodies (Abcam, Cell Signaling) against IgG control, agarose beads, on-bead digestion, label-free LC-MS/MS, triplicates

binding | Substance
binds | PER1, endogenous (from UniProt O15534 1-1290)
binds | Transportin 1 (TNPO1), endogenous (from UniProt Q92973 1-898)
binds | BMAL1 (from UniProt O00327 1-626)
